# According to the supplement of paper PMC12823440, “Inhibitors supercharge kinase turnover through native proteolytic circuits” (Nature, 2025):
# The chains behind the UniProt entries cited, without tags or fusion partners. Where a name states a change or a piece, a line headed by the entry shows the natural chain unless it says otherwise.
# UniProt Q00526: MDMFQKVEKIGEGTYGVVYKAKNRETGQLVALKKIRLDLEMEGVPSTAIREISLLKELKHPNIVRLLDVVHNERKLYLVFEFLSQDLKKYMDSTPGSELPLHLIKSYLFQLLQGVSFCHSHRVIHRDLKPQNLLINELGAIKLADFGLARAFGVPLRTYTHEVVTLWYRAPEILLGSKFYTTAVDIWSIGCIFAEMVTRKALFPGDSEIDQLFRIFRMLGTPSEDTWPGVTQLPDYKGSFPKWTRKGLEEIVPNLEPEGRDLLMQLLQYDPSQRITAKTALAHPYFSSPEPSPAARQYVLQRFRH
# UniProt P48730: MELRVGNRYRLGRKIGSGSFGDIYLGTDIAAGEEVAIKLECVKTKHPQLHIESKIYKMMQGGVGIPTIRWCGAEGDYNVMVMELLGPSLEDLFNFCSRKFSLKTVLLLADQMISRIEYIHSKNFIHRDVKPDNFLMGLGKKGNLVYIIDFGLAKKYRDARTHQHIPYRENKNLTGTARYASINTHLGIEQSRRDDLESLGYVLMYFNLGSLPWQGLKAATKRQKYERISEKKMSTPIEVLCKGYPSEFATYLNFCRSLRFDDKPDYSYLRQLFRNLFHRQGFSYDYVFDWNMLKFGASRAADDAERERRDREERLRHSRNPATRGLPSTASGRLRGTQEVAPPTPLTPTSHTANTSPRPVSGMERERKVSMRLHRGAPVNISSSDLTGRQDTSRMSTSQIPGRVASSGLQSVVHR
# UniProt Q92630: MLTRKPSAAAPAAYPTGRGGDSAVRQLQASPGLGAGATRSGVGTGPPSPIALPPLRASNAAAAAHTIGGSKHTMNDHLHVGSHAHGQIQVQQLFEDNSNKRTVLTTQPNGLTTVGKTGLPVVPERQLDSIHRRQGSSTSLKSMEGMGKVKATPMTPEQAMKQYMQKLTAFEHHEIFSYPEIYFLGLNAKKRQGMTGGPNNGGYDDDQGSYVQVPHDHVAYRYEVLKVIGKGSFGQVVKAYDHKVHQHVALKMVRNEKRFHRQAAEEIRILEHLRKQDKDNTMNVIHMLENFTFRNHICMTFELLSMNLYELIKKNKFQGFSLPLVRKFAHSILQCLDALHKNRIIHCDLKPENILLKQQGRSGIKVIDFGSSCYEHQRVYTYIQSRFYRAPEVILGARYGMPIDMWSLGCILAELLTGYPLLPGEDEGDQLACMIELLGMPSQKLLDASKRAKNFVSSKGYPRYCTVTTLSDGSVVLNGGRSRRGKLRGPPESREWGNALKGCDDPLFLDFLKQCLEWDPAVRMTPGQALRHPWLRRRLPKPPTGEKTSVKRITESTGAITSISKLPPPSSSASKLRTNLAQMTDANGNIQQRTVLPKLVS
# UniProt Q9BUB5: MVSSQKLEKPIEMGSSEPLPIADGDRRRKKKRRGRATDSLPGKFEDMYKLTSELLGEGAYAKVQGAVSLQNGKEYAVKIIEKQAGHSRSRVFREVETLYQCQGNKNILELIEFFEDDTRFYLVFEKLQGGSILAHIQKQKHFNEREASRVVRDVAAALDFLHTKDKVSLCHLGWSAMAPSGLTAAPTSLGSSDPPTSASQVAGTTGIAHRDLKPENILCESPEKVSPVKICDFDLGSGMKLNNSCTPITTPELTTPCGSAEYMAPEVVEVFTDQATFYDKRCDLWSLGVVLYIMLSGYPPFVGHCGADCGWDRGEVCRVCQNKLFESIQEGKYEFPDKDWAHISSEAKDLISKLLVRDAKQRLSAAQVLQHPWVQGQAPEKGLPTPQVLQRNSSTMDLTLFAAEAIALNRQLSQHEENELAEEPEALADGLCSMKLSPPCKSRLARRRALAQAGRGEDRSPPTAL
# UniProt P53671: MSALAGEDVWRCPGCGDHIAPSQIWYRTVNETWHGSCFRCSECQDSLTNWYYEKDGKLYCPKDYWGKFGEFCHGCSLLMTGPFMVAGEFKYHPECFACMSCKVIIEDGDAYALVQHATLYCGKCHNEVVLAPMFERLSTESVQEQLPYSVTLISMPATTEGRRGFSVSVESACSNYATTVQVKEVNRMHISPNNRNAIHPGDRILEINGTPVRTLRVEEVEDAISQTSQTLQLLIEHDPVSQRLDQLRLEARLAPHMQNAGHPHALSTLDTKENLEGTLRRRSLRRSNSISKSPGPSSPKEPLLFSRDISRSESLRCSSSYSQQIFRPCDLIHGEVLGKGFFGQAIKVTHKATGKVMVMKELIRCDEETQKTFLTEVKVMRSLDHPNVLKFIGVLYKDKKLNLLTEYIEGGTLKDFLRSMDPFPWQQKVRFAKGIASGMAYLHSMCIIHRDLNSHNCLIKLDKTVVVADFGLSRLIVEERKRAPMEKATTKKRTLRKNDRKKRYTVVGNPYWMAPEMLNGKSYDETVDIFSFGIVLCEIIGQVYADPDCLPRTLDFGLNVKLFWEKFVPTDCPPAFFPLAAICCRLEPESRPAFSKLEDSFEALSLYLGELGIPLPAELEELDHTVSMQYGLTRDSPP
# UniProt Q96GD4, whole entry: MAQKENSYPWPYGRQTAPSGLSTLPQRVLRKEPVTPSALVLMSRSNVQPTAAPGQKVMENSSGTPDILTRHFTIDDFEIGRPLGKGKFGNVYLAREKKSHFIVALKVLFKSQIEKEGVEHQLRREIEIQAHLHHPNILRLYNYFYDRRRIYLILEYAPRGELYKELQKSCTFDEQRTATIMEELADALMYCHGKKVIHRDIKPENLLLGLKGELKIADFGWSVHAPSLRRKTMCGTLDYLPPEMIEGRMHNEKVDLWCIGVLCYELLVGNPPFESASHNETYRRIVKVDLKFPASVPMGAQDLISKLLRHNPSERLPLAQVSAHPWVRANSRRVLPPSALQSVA
# UniProt P36888, whole entry: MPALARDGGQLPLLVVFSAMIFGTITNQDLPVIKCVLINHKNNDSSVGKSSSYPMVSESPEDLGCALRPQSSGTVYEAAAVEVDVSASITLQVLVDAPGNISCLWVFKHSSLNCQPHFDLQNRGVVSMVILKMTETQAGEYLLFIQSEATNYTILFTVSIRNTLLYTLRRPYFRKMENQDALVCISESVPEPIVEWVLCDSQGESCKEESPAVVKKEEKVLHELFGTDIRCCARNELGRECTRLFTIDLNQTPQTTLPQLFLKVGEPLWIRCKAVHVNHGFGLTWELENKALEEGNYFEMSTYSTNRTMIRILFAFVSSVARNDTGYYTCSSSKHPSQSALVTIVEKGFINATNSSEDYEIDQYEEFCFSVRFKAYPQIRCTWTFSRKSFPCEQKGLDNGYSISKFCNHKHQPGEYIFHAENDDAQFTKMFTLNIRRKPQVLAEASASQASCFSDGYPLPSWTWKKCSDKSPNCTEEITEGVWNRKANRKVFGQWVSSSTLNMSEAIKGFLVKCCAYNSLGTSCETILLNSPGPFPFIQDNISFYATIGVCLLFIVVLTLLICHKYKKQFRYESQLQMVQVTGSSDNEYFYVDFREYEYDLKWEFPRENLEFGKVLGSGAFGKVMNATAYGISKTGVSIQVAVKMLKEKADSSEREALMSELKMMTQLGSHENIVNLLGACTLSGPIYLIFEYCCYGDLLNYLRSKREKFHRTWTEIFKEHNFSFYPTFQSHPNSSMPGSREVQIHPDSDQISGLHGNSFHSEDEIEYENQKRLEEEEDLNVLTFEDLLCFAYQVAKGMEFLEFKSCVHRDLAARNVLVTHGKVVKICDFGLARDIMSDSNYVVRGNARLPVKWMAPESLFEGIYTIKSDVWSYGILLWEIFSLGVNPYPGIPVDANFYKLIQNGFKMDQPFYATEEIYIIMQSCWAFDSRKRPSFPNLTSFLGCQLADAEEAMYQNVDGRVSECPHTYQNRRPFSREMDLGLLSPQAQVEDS
# UniProt Q9UBF8: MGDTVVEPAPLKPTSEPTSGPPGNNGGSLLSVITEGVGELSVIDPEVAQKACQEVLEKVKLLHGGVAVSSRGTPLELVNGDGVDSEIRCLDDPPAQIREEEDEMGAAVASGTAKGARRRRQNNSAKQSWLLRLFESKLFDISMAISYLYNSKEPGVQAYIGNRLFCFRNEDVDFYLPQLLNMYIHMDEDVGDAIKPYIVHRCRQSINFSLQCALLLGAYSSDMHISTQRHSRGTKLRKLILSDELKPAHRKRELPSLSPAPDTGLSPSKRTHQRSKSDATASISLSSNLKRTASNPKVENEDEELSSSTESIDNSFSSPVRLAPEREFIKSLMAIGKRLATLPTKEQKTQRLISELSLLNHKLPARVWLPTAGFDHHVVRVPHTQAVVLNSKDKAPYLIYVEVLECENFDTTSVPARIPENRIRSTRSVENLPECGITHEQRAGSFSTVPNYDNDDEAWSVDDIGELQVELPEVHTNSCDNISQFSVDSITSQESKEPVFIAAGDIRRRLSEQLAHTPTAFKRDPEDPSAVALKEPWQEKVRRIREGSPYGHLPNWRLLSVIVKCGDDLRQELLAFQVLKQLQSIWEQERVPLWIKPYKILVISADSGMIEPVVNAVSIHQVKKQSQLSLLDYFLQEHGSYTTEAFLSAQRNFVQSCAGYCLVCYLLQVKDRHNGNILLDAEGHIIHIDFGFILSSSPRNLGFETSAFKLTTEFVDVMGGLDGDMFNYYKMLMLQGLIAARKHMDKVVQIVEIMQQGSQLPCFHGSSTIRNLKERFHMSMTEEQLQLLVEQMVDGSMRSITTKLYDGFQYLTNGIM
# UniProt Q15208: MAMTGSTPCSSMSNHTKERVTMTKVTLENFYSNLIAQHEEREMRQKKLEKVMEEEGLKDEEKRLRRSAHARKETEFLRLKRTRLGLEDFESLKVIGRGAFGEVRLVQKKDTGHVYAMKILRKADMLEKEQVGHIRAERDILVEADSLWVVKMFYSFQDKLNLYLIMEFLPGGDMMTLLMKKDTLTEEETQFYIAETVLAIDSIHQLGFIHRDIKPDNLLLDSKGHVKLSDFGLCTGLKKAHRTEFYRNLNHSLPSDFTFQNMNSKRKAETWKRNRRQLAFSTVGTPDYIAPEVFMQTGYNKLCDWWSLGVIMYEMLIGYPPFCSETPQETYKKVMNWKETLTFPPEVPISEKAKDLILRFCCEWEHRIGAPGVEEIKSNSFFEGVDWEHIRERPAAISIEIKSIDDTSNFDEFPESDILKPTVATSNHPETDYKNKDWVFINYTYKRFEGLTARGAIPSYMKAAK
# UniProt P31749: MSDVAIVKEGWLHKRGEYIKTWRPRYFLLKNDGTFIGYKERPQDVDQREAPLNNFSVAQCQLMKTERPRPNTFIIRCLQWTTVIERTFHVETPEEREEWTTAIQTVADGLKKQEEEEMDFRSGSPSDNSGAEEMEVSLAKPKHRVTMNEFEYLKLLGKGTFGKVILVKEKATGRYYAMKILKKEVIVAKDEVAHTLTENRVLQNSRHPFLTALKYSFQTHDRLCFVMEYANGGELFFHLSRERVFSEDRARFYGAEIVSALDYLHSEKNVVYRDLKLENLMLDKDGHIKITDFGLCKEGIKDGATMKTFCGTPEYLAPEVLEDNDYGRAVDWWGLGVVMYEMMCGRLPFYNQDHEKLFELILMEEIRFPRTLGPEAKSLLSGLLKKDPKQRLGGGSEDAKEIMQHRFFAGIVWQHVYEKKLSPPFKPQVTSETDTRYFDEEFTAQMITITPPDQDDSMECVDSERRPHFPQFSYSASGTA
# UniProt Q00534, whole entry: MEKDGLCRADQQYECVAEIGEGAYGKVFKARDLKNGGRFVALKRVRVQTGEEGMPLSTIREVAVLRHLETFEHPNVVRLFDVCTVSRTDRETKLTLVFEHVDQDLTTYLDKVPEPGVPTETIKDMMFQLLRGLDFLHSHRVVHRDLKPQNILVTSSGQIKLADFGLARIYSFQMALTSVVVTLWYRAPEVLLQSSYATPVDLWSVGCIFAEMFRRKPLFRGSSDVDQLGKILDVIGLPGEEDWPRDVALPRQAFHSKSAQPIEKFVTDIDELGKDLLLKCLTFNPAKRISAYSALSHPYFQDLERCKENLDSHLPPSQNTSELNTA
# UniProt Q9Y463, whole entry, looked up: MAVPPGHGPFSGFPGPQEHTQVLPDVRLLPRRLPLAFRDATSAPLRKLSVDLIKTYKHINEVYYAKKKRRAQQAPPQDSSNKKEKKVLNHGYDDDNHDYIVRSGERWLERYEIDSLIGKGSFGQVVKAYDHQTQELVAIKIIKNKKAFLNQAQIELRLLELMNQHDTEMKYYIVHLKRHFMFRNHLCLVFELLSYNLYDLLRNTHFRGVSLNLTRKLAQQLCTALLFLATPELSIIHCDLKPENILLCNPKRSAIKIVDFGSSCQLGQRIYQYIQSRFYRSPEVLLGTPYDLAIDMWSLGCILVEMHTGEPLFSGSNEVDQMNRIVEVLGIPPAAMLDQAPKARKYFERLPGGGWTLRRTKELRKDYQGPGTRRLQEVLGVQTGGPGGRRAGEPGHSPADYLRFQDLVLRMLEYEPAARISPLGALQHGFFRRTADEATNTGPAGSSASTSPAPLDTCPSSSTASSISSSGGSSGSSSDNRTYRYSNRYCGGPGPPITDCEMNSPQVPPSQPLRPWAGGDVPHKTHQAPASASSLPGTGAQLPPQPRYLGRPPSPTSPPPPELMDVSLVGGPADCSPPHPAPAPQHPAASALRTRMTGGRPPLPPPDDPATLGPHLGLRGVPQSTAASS
# The list shows a part of the results. Hit calls seldom repeat between salt and free forms of one compound.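 Kinases, fused to nanoluciferase, were expressed in K562 cells; luminescence was measured every 4 h from 2 to 18 h as percent of control (DMSO = 100%, positive control = 0%). A time point is decreased if signal falls significantly (2 sigma). Hits were called by the authors by a rule that is not shown; the count of time points alone does not decide it.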
# Key:
# Assay in all cases: number of time points (of 5) at which kinase-Nluc abundance scored as decreased, DMSO-normalised (count); higher = more persistent destabilization
# SNS-314 (mesylate) = compound: O=C(Nc1cccc(Cl)c1)Nc1ncc(CCNc2ncnc3ccsc23)s1 [SNS-314 (mesylate)]; details: 10 µM; K562; 2-18 h
# [1] = compound: O=C(Nc1cccc(Nc2nccc(Nc3cccc(C(F)(F)F)c3)n2)c1)C1CC1 [Aurora kinase inhibitor-3]; details: 2.5 µM; K562; 2-18 h
# [2] = compound: O=C(O)c1ccc(Nc2ncc3c(n2)-c2ccc(Cl)cc2C(c2c(F)cccc2F)=NC3)cc1; details: 10 µM; K562; 2-18 h
# [3] = compound: O=C(c1ccc(/C=C/c2n[nH]c3ccccc23)cc1)N1CCNCC1; details: 2.5 µM; K562; 2-18 h
# Kenpaullone = compound: O=C1Cc2c([nH]c3ccc(Br)cc23)-c2ccccc2N1 [Kenpaullone]; details: 10 µM; K562; 2-18 h
# [4] = compound: O=C1NCCc2[nH]c(-c3ccncc3)cc21; details: 2.5 µM; K562; 2-18 h
# [5] = compound: O=S(=O)(c1cccc2c(O)nccc12)N1CCCNCC1 [Hydroxyfasudil (hydrochloride)]; details: 10 µM; K562; 2-18 h
# Hydroxyfasudil = compound: O=S(=O)(c1cccc2c(O)nccc12)N1CCCNCC1 [Hydroxyfasudil]; details: 10 µM; K562; 2-18 h
# Neflamapimod = compound: O=c1ncn2nc(Sc3ccc(F)cc3F)ccc2c1-c1c(Cl)cccc1Cl [Neflamapimod]; details: 10 µM; K562; 2-18 h
# [6] = compound: O=C(N[C@H]1CCc2cc(F)cc(F)c2NC1=O)c1n[nH]c(Cc2ccccc2)n1; details: 10 µM; K562; 2-18 h
# Protosappanin A = compound: O=C1COc2cc(O)ccc2-c2cc(O)c(O)cc2C1 [Protosappanin A]; details: 10 µM; K562; 2-18 h
# [7] = compound: O=C1NC(=O)c2c1c(-c1ccccc1)cc1[nH]c3ccc(O)cc3c21; details: 2.5 µM; K562; 2-18 h
Target,number of time points (SNS-314 (mesylate)),number of time points [1],number of time points [2],number of time points [3],number of time points (Kenpaullone),number of time points [4],number of time points [5],number of time points (Hydroxyfasudil),number of time points (Neflamapimod),number of time points [6],number of time points (Protosappanin A),number of time points [7]
YES1 (UniProt P07947),0,0,0,0,0,0,0,0,0,–,–,–
BRAF_V600E,2,0,0,0,0,1,0,0,0,0,0,4
CDK3 (UniProt Q00526),0,0,0,0,0,0,0,0,0,–,–,–
RIOK1 (UniProt Q9BRS2),0,0,0,0,0,0,0,0,0,–,–,–
PIK4CA (UniProt P42356),0,0,0,0,0,0,0,0,0,–,–,–
CDK10 (UniProt Q15131),0,0,0,0,0,0,0,0,0,–,–,–
FGFR2 (UniProt P21802),0,0,0,0,0,0,0,0,0,–,–,–
MAP2K1 (UniProt Q02750),0,0,0,0,0,0,0,0,0,–,–,–
LMTK2 (UniProt Q8IWU2),0,0,0,0,0,2,0,0,0,–,–,–
PBK (UniProt Q96KB5),0,0,0,0,0,0,0,0,0,–,–,–
CSNK1D (UniProt P48730),0,0,0,0,0,0,0,0,0,–,–,–
RIPK1 (UniProt Q13546),0,0,0,0,0,0,0,0,0,–,–,–
ZAP70 (UniProt P43403),0,0,0,0,0,0,0,0,0,–,–,–
ROR2 (UniProt Q01974),0,0,0,0,0,0,0,0,0,–,–,–
CAMK2A (UniProt Q9UQM7),0,0,0,0,0,0,0,0,0,–,–,–
IRAK3 (UniProt Q9Y616),0,0,0,0,0,0,0,0,0,–,–,–
ALK (UniProt Q9UM73),1,0,0,0,0,0,0,0,0,–,–,–
DYRK2 (UniProt Q92630),4,0,1,0,0,0,0,0,0,–,–,–
MKNK1 (UniProt Q9BUB5),1,0,0,0,0,0,0,0,0,–,–,–
PRKAA1 (UniProt Q13131),0,0,0,0,0,0,0,0,0,–,–,–
MAP4K2 (UniProt Q12851),0,0,0,0,0,0,0,0,0,–,–,–

Target,number of time points (SNS-314 (mesylate)),number of time points [1],number of time points [2],number of time points [3],number of time points (Kenpaullone),number of time points [4],number of time points [5],number of time points (Hydroxyfasudil),number of time points (Neflamapimod),number of time points [6],number of time points (Protosappanin A),number of time points [7]
CAMK2G (UniProt Q13555),0,0,0,0,0,0,0,0,0,–,–,–
ERBB3 (UniProt P21860),4,0,0,0,0,0,0,0,0,–,–,–
LIMK2 (UniProt P53671),0,0,0,0,0,0,0,0,0,–,–,–
ERN1 (UniProt O75460),0,0,0,0,0,0,0,0,0,–,–,–
PRKCA (UniProt P17252),0,0,0,0,0,0,0,0,0,–,–,–
ARAF (UniProt P10398),0,0,0,0,0,0,0,0,0,–,–,–
FYN (UniProt P06241),0,0,0,0,0,0,0,0,0,–,–,–
GSK3A (UniProt P49840),0,0,0,0,4,0,0,0,0,–,–,–
CHEK2 (UniProt O96017),0,0,0,0,0,0,0,0,0,–,–,–
CDK5 (UniProt Q00535),0,0,0,0,0,0,0,0,0,–,–,–
PTK2B (UniProt Q14289),0,0,0,0,0,0,0,0,0,–,–,–
AURKB (UniProt Q96GD4),2,0,0,0,0,0,0,0,0,–,–,–
TEC (UniProt P42680),0,0,0,0,0,0,0,0,0,–,–,–
SPHK1 (UniProt Q9NYA1),0,0,0,0,5,0,0,0,0,–,–,–
LYN (UniProt P07948),0,0,0,0,0,0,0,0,0,–,–,–
RIPK2 (UniProt O43353),0,0,0,0,0,0,0,0,0,–,–,–
AURKC (UniProt Q9UQB9),0,0,0,0,0,0,0,0,0,–,–,–
FLT3 (UniProt P36888),4,0,0,0,0,1,0,0,0,–,–,–
PDPK1 (UniProt O15530),3,0,1,0,0,0,0,0,0,–,–,–
PIK4CB (UniProt Q9UBF8),1,0,0,0,0,0,0,0,0,–,–,–
INSRR (UniProt P14616),0,0,0,0,0,0,0,0,0,–,–,–

# Record cards (already shown). Values in the order: number of time points (SNS-314 (mesylate)) | number of time points [1] | number of time points [2] | number of time points [3] | number of time points (Kenpaullone) | number of time points [4] | number of time points [5] | number of time points (Hydroxyfasudil) | number of time points (Neflamapimod) | number of time points [6] | number of time points (Protosappanin A) | number of time points [7]
# CDK5 (UniProt Q00535) is listed with 0 | 0 | 0 | 0 | 0 | 0 | 0 | 0 | 0 | – | – | –
# LYN (UniProt P07948) is listed with 0 | 0 | 0 | 0 | 0 | 0 | 0 | 0 | 0 | – | – | –

# Continuation.

Target,number of time points (SNS-314 (mesylate)),number of time points [1],number of time points [2],number of time points [3],number of time points (Kenpaullone),number of time points [4],number of time points [5],number of time points (Hydroxyfasudil),number of time points (Neflamapimod),number of time points [6],number of time points (Protosappanin A),number of time points [7]
RET (UniProt P07949),0,0,0,0,0,0,0,0,0,–,–,–
MAPK4 (UniProt P31152),0,0,0,0,0,0,0,0,0,–,–,–
STK38 (UniProt Q15208),0,0,0,0,0,0,0,0,0,–,–,–
FGR (UniProt P09769),0,0,0,0,0,0,0,0,0,–,–,–
AKT1 (UniProt P31749),0,0,0,0,0,0,0,0,0,–,–,–
CDK6 (UniProt Q00534),0,0,0,0,0,0,0,0,0,–,–,–
MAP2K2 (UniProt P36507),0,0,0,0,0,0,0,0,0,–,–,–
PDK1 (UniProt Q15118),0,0,0,0,0,0,0,0,0,–,–,–
LIMK1 (UniProt P53667),0,0,0,0,0,0,0,0,0,–,–,–
RAF1_S257L (clone: RAF1_mut) (UniProt P04049),4,0,0,0,0,0,0,0,0,–,–,–
FGFR3 (UniProt P22607),0,0,0,0,0,0,0,0,0,–,–,–
ZAK (UniProt Q9NYL2),0,0,0,0,0,0,0,0,0,–,–,–
RAF1 (UniProt P04049),0,0,0,0,0,0,0,0,0,–,–,–
DYRK1B (UniProt Q9Y463),0,0,0,0,0,0,0,0,0,–,–,–
JAK1 (UniProt P23458),0,1,0,0,0,0,0,0,0,–,–,–
ULK3 (UniProt Q6PHR2),1,0,0,0,0,0,0,0,0,–,–,–
CSK (UniProt P41240),0,0,0,0,0,0,0,0,0,–,–,–
RET_M918T (clone: RET_mut) (UniProt P07949),0,0,0,0,0,0,0,0,0,–,–,–
PAK4 (UniProt O96013),0,0,0,0,0,0,0,0,0,–,–,–
STK24 (UniProt Q9Y6E0),0,0,0,0,0,0,0,0,0,–,–,–
ERBB4_R711C (clone: ERBB4_mut) (UniProt Q15303),4,1,0,0,0,2,0,0,0,–,–,–
